Results are given in words; binding and its absence hold for the method and conditions named. Binding seen in cells or lysates may run through a third protein. Some results given as binding are weak or reduced against the parent protein; the word gives no strength. Tags and fused reporters may be left off the sequences shown.
Key:
[1] = target: GST-SU (human) (UniProt Q9UQF0); test: GST-SU pull-down, immunoblot with FLAG mAb
[2] = target: GST-SU (human) (UniProt Q9UQF0); test: GST pull-down, immunoblot with FLAG mAb

The chains behind the UniProt entries cited, without tags or fusion partners. Residues count along the entry.
UniProt Q9UQF0, residues 21-317: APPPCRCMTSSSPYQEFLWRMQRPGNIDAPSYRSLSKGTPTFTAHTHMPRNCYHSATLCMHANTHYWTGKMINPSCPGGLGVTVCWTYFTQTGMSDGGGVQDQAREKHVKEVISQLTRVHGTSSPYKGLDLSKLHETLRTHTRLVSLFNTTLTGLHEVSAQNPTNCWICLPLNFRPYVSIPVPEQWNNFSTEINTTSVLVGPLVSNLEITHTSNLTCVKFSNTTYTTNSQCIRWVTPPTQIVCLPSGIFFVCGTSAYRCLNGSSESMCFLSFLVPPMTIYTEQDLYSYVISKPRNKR

binding [1]: binds
binding [2]: binds
B1: HtrA4mt-FLAG (enzyme, human, UniProt P83105 32-476, looked up, not shown: small tags and cut ends)
chain: EKLHTQPSCPAVCQPTRCPALPTCALGTTPVFDLCRCCRVCPAAEREVCGGAQGQPCAPGLQCLQPLRPGFPSTCGCPTLGGAVCGSDRRTYPSMCALRAENRAARRLGKVPAVPVQWGNCGDTGTRSAGPLRRNYNFIAAVVEKVAPSVVHVQLWGRLLHGSRLVPVYSGSGFIVSEDGLIITNAHVVRNQQWIEVVLQNGARYEAVVKDIDLKLDLAVIKIESNAELPVLMLGRSSDLRAGEFVVALGSPFSLQNTATAGIVSTKQRGGKELGMKDSDMDYVQIDATINYGNAGGPLVNLDGDVIGVNSLRVTDGISFAIPSDRVRQFLAEYHEHQMKGKAFSNKKYLGLQMLSLTVPLSEELKMHYPDFPDVSSGVYVCKVVEGTAAQSSGLRDHDVIVNINGKPITTTTDVVKALDSDSLSMAVLRGKDNLLLTVIPETIN
